Results are given in words; binding and its absence hold for the method and conditions named. Binding seen in cells or lysates may run through a third protein. Some binding calls cover weakened binding; strength is not graded here. For part of these data: Tags and fused reporters may be left off the sequences shown.
Tests used:
[1] = molecular target: endogenous ENO1 of A2780 cells (human (endogenous in A2780)) (UniProt P06733); test: co-IP; A2780 extracts immunoprecipitated with anti-ENO1 or control rabbit IgG, western blotted by PRMT5 antibody
[2] = molecular target: Flag-tagged PRMT5 (protein arginine methyltransferase 5) (human) (UniProt O14744); test: co-IP; called Flag pull-down: Flag-conjugated beads added to NP40 lysate of cells expressing the Flag-tagged bait, overnight at 4°C, washed three times with PBS, western blotting
[3] = molecular target: GST-tagged ENO1 expressed in 293T cells (human) (UniProt P06733); test: pull-down; GST pull-down: GST-conjugated beads added to NP40 lysate of 293T cells expressing GST-ENO1, overnight at 4°C, washed with PBS, western blotting for endogenous PRMT5
Flag-tagged HK2 = molecular target: T1, Flag-tagged HK2 (UniProt P52789); test: co-IP; called Flag pull-down: Flag-conjugated beads added to NP40 lysate of cells expressing the Flag-tagged bait, overnight at 4°C, washed three times with PBS, western blotting
T1 sequence: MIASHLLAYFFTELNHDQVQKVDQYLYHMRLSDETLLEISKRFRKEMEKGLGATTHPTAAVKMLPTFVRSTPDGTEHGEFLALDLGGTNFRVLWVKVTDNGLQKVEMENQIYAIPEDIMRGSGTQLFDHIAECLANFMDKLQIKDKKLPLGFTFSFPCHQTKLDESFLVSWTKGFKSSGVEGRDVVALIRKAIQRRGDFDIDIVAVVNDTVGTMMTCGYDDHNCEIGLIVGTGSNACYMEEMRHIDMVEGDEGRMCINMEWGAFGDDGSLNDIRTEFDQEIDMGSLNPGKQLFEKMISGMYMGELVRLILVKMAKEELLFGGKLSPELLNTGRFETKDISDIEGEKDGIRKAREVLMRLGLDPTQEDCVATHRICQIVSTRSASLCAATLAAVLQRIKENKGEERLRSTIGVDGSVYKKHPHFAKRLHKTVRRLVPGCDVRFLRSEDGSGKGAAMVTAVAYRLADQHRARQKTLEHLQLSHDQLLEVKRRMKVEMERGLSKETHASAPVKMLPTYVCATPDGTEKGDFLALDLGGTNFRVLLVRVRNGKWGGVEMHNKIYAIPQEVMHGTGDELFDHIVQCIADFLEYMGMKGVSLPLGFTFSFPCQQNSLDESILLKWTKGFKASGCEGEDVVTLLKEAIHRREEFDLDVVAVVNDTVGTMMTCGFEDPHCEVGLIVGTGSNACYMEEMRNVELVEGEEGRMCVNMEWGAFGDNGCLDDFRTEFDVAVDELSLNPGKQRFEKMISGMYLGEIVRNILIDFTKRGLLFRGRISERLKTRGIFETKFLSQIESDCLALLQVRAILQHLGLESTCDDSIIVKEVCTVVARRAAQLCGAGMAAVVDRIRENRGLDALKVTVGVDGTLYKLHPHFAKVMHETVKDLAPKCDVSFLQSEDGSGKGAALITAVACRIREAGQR

Amino acid sequences for entries named in this document (tags omitted). A change or cut given only in a name is not applied to a line headed by its entry.
UniProt P06733: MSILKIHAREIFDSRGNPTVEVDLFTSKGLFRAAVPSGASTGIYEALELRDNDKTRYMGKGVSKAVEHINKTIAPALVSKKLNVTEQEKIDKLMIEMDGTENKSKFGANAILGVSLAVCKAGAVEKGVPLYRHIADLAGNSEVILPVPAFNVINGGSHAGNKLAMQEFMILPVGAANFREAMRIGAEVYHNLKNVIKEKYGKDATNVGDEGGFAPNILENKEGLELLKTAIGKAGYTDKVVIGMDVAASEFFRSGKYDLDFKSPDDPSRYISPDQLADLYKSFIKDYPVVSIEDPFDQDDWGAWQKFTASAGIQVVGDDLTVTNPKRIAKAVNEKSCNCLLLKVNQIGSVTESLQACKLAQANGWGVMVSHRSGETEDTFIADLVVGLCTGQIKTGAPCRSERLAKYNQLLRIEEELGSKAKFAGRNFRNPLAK
UniProt O14744: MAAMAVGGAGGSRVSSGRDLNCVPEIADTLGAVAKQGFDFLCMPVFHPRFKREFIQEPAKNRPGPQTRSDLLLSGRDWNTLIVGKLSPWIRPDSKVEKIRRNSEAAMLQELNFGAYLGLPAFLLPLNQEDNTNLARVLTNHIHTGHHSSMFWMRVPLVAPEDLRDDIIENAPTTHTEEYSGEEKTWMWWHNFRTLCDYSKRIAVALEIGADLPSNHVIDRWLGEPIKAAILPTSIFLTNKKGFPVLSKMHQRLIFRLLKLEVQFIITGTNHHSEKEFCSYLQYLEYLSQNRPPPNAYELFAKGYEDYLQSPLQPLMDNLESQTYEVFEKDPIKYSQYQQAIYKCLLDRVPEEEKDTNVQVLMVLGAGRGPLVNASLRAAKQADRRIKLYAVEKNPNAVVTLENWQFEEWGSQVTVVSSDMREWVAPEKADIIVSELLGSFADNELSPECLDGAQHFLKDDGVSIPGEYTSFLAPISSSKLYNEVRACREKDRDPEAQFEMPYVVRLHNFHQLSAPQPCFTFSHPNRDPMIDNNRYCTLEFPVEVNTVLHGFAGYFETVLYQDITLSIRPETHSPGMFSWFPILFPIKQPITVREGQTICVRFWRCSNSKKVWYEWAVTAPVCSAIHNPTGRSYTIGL
UniProt P04406: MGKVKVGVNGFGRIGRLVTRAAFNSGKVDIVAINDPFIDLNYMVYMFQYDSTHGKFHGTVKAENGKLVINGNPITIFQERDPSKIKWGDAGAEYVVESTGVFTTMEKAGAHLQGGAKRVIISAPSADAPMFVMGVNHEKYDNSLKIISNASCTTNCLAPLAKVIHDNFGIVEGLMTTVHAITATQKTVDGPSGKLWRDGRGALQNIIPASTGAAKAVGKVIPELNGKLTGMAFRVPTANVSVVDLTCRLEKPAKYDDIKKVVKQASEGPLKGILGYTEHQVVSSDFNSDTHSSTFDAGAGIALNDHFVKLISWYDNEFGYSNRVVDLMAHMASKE

Flag-tagged GAPDH = Flag-tagged GAPDH (UniProt P04406); test: as above
[4] = molecular target: Flag-tagged ENO1 WT (human) (UniProt P06733); test: co-IP; called Flag pull-down: Flag-ENO1 WT, R9K or R412K expressed in 293T cells, Flag beads, western blotting for endogenous ENO1; also in cells with knockdown of PRMT5 (Figure S3F)
[5] = molecular target: Flag-tagged ENO1 R412K (human) (UniProt P06733); test: as above

In the case of “endogenous PRMT5 of A2780 cells (from UniProt O14744 1-637) (enzyme)”, the binding [1] is reported as “binds”.

In the case of “glyceraldehyde-3-phosphate dehydrogenase (GAPDH) in HEK293T cells (from UniProt P04406 1-335) (enzyme)”, the binding [2] is reported as “binds”.

For “endogenous PRMT5 of 293T cells (from UniProt O14744 1-637) (enzyme)”, the binding [3] was “binds”, the binding (Flag-tagged HK2) was “binds” and the binding (Flag-tagged GAPDH) was “binds”.

With “alpha-enolase (ENO1) in HEK293T cells (from UniProt P06733 1-434) (enzyme)” the binding [2] was “binds”, the binding [4] was “binds” and the binding [5] was “binds”.

B1: hexokinase 2 (HK2) in HEK293T cells (enzyme, UniProt P52789 1-917)
chain: T1 sequence
In the case of B1, the binding [2] is reported as “binds”.

From paper PMC10044308
